# PubChem BioAssay AID1259425 – University of Nebraska Medical Center | 2018
# Screen: 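Compare each knockdown with KSR1 silencing using changes in marker transcripts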 (primary screen)
# System: HCT116 human colon cancer cells
# Knock-down reagent: siRNA pool against human genes, 50 nM siRNA
# Read-out: 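After 50 nM siRNA pool, branched-DNA assay measures six marker transcripts per well, minus blank, normalised to the geometric mean of two housekeeping transcripts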
# Direction: BNIP3L mRNA: higher = more BNIP3L transcript after knockdown; NDRG1 mRNA: higher = more NDRG1 transcript after knockdown; BNIP3 mRNA: higher = more BNIP3 transcript after knockdown; ALDOC mRNA: higher = more ALDOC transcript after knockdown; ACSL5 mRNA: higher = more ACSL5 transcript after knockdown
# Here is one part, drawn at random, of about 14,000 reagents tested. No sequences are given here. Not stated in the record: the time to read-out.
Target gene,PubChem SID,"BNIP3L mRNA, set 1","NDRG1 mRNA, set 1","BNIP3 mRNA, set 1","ALDOC mRNA, set 1","ACSL5 mRNA, set 1"
LDLRAD4 (GeneID 753),SID363995327,0.0739,0.394,0.235,0.0307,0.123
TECPR1 (GeneID 25851),SID363999466,0.102,0.206,0.403,0.0335,0.421
RSAD1 (GeneID 55316),SID364000993,0.168,0.435,0.293,0.0375,0.196
ALAS1 (GeneID 211),SID363991987,0.105,0.299,0.255,0.00923,0.119
HOMER2 (GeneID 9455),SID363995791,0.105,0.139,0.19,0.0136,0.243
LIPG (GeneID 9388),SID363996884,0.062,0.0979,0.257,0.0199,0.0767
CEP162 (GeneID 22832),SID363999180,0.0451,0.122,0.198,0.0368,0.13
PCBP4 (GeneID 57060),SID364001681,0.101,0.638,0.255,0.0278,0.157
BRD9 (GeneID 65980),SID364002650,0.13,0.0589,0.229,0.0293,0.0945
LIMS2 (GeneID 55679),SID364000683,0.0408,0.148,0.351,0.0213,0.162
APP (GeneID 351),SID363991807,0.1,0.359,0.283,0.0163,0.151
CCDC186 (GeneID 55088),SID364000710,0.144,0.12,0.254,0.0306,0.113
C19orf73 (GeneID 55150),SID364000789,0.208,0.511,0.34,0.0506,0.233
CCL3 (GeneID 6348),SID363994134,0.0846,0.0843,0.139,0.0263,0.15
ELOVL6 (GeneID 79071),SID364002740,0.112,0.103,0.262,0.0405,0.131
SLC27A3 (GeneID 11000),SID364002801,0.146,0.154,0.402,0.0262,0.105
BRSK2 (GeneID 9024),SID363995012,0.164,0.081,0.328,0.0101,0.259
LGALS12 (GeneID 85329),SID364004318,0.0953,0.163,0.246,0.0117,0.215
RGL1 (GeneID 23179),SID363999331,0.0772,0.12,0.189,0.0221,0.142
MLNR (GeneID 2862),SID363992765,0.142,0.461,0.44,0.0327,0.201
RIN2 (GeneID 54453),SID364001314,0.092,0.496,0.325,0.0259,0.153
PSMD6 (GeneID 9861),SID363999124,0.165,0.526,0.331,0.134,0.137
C3orf52 (GeneID 79669),SID364002917,0.107,0.179,0.231,0.0464,0.122
SRSF4 (GeneID 6429),SID363996520,0.113,0.0956,0.235,0.0137,0.171
HOXD10 (GeneID 3236),SID363993352,0.128,0.209,0.189,0.0109,0.129
CD300LF (GeneID 146722),SID364004587,0.0634,0.179,0.343,0.0281,0.243
ENSA (GeneID 2029),SID363995418,0.102,0.127,0.295,0.0417,0.137
FBN2 (GeneID 2201),SID363993211,0.109,0.353,0.307,0.0387,0.233
MTERF2 (GeneID 80298),SID364003306,0.256,0.176,0.367,0.0182,0.22
ATP4B (GeneID 496),SID363992003,0.0889,0.131,0.319,0.0562,0.098
NOAZFP (GeneID 27309),SID363998899,0.0771,0.263,0.343,0.0166,0.171
IL1R1 (GeneID 3554),SID363992164,0.134,0.504,0.231,0.0256,0.258
ZMYND8 (GeneID 23613),SID363998293,0.32,0.183,0.341,0.0426,0.169
NUP155 (GeneID 9631),SID363995292,0.0941,0.108,0.233,0.00757,0.0439
RPAP3 (GeneID 79657),SID364002907,0.279,0.838,0.533,0.123,0.54
CEACAM7 (GeneID 1087),SID363997647,0.0911,0.104,0.294,0.0241,0.165
NOP56 (GeneID 10528),SID363997204,0.112,0.285,0.416,0.024,0.143
MIA (GeneID 8190),SID363997327,0.0503,0.099,0.235,0.029,0.112
PCBD1 (GeneID 5092),SID363991613,0.183,0.519,0.466,0.0525,0.297
PRB1 (GeneID 5542),SID363995978,0.075,0.0935,0.232,0.0167,0.219
PCDH17 (GeneID 27253),SID363998871,0.195,0.0947,0.274,0.0247,0.132
PSMC6 (GeneID 5706),SID363993963,0.181,1.53,0.231,0.0358,0.122
KAT8 (GeneID 84148),SID364003823,0.254,0.289,0.242,0.0773,0.374
RAB35 (GeneID 11021),SID363997625,0.123,0.309,0.295,0.0749,0.122
CLDN3 (GeneID 1365),SID363992589,0.0796,0.773,0.055,0.0252,0.229
TOMM7 (GeneID 54543),SID364001366,1.79,3.38,3.83,0.608,0.183
PCDHA12 (GeneID 56137),SID364001230,0.151,0.53,0.326,0.0122,0.339
ARHGAP23 (GeneID 57636),SID364005350,0.0845,0.0884,0.43,0.0262,0.126
CCN6 (GeneID 8838),SID363994939,0.0406,0.135,0.237,0.0314,0.183
PTPN7 (GeneID 5778),SID363993988,0.0984,0.306,0.353,0.0221,0.211
MAPK8IP2 (GeneID 23542),SID363998234,0.199,0.218,0.38,0.00743,0.609
CEBPA (GeneID 1050),SID363995350,0.0979,0.116,0.221,0.00384,0.113
UGP2 (GeneID 7360),SID363997530,0.112,0.197,0.416,0.0207,0.174
DPEP1 (GeneID 1800),SID363995395,0.0678,0.184,0.398,0.00247,0.211
ACTR1A (GeneID 10121),SID363996621,0.113,0.181,0.312,0.0346,0.104
COL11A2 (GeneID 1302),SID364004494,0.0887,0.104,0.433,0.02,0.123
PYY (GeneID 5697),SID363995164,0.1,0.164,0.419,0.0314,0.183
ABLIM1 (GeneID 3983),SID363993510,0.112,0.143,0.278,0.0477,0.207
AMY1A (GeneID 276),SID363995048,0.0961,0.135,0.296,0.00863,0.17
PSTPIP1 (GeneID 9051),SID363995031,0.124,0.194,0.231,0.032,0.117
OR7C2 (GeneID 26658),SID363998267,0.137,0.122,0.245,0.0564,0.234
GPR180 (GeneID 160897),SID364004926,0.0752,0.106,0.261,0.0216,0.103
ELL3 (GeneID 80237),SID364003290,0.157,0.495,0.314,0.0303,0.233
